Reference: PubChem BioAssay AID540276 (National Center for Advancing Translational Sciences (NCATS), 2011)
Values joined by “and” are separate entries in the source; they are usually repeats but may differ in a detail not shown here. Identical values can stand only once. Screen size: about 300,000 compounds; about 5,400 (1.8%) were called active. This list was built around the results that the source calls inconclusive (neither active nor inactive); the mix of calls is not that of the screen. The call rests on the fitted dose curve; tested in HEK293 cells. A potency beside an inconclusive call is a rough fit, not a confirmed value.

Assay: qHTS for inhibitors of binding or entry into cells for Marburg Virus
Conditions: Marburg virus pseudotyped entry inhibition, cell reporter; activity change, negative = inhibition: at 37.8 µM (top of the series) unless noted
On the % scale 0 is the no-effect control and ±100 the full control effect; potency means the concentration at half of the fitted maximal effect.

Compound | activity change, negative = inhibition | Potency
CCCOC(=S)NC(=O)c1sc2ccccc2c1Cl | inactive: -7.7% | –
CCN(CC)S(=O)(=O)c1ccc(N2CCOCC2)c(NC(=O)C2CCCC2)c1 | inactive: 17.4% | –
Cc1ccc(C(=O)N(CCN2CCCCC2)CC2CCCN(C3CCCC3)C2)s1 (stereo unspecified) | – | active: 8.91 µM
O=C(NCc1ccco1)c1cnn2c1NC(c1ccc(Br)cc1)CC2C(F)(F)F (stereo unspecified) | – | inconclusive: 2.24 µM [activator, partial curve, poor fit]
O=C(c1ccc(-n2cncn2)c([N+](=O)[O-])c1)N1CCN(c2cccc(Cl)c2)CC1 | – | inconclusive: 6.31 µM [inhibitor, partial curve, poor fit]
CCOc1cc(S(=O)(=O)N2CCN(CC)CC2)ccc1Cl | inactive: -18.5% [at 46.1 µM] | –
Cc1cc(C(C)(C)C)ccc1NC(=O)CC(C)(C)CC(=O)O | – | inconclusive: 12.6 µM [activator, single point]
CCNCC(=O)N1c2ccccc2CCc2ccc(NC(=O)OC(C)C)cc21 | – | inconclusive: 12.6 µM [inhibitor, partial curve, poor fit]
COCCNC(=O)c1ccc(C)cc1C | – | inconclusive: 35.5 µM [activator, single point]
Cc1cc(OCc2cc(C(=O)N(C)C3CCOCC3)no2)cc(C)c1Cl | inactive: -11.4% | –
Cn1c(C(=O)NCc2ccccc2)cc2oc3ccccc3c21 | – | active: 2.59 µM
COc1ccc(CCNC(=O)[C@@H]2C[C@H]2c2ccccc2)cc1OC | – | inconclusive: 0.501 µM [inhibitor, partial curve, poor fit]
O=C(Nc1ccccc1-c1ccccc1)NC1CC2CCCC(C1)N2CCc1ccccc1 (stereo unspecified) | – | inconclusive: 7.31 µM [inhibitor, partial curve, poor fit]
COc1ccc(NC(=S)NCC2CCN(c3ccc(OC)cc3)C2)cc1 (stereo unspecified) | – | inconclusive: 35.5 µM [inhibitor, single point]
CCOC(=O)c1ccc(NC(=O)c2ccc(NS(C)(=O)=O)cc2)cc1 | inactive: 14.3% | –
COc1ccc(OC)c(CC2C(=O)Nc3ccc(Br)cc32)c1 (stereo unspecified) | – | inconclusive: 35.5 µM [inhibitor, single point]
O=C(CCC(=O)Nc1ccc(Br)cc1)N/N=C/c1cc([N+](=O)[O-])ccc1O | – | inconclusive: 35.5 µM [inhibitor, partial curve, poor fit]
CC1(C)C(=O)Nc2ccccc2N1C(=O)COc1ccc(S(=O)(=O)N2CCOCC2)cc1Cl | inactive: 19.6% | –
Cc1ccc(COC(=O)Cc2coc3cc(O)ccc23)cc1 | – | inconclusive: 35.5 µM [inhibitor, single point]
COc1ccc(OC)c(S(=O)(=O)Nc2cc(OC)c(Cl)cc2OC)c1 | – | inconclusive: 13 µM [inhibitor, partial curve, poor fit]
N/C(=N\OC(=O)c1ccccc1)c1ccccn1 | – | inconclusive: 12.6 µM [inhibitor, partial curve, poor fit]
COc1cccc(C2/C(=C(/O)c3cnn(-c4ccccc4)c3C)C(=O)C(=O)N2CCN(C)C)c1OC (stereo unspecified) | – | active: 1.12 µM
O=C(C1=COCCO1)N1CCN(C(c2ccccc2)c2ccccc2)CC1 | – | inconclusive: 35.5 µM [inhibitor, single point]
COc1ccc(-n2c(C)cc(C(=O)CN3C(=O)NC4(CCc5ccccc54)C3=O)c2C)cc1 (stereo unspecified) | – | inconclusive: 1.58 µM [inhibitor, full curve, poor fit]

Compound | activity change, negative = inhibition | Potency
O=C(/C=C/c1ccc(Br)cc1)NCc1cccs1 | inactive: 32.9% | –
Cc1cc(C)nc(SCc2nnc(SCC(=O)Nc3nccs3)n2C)n1 | – | inconclusive: 1 µM [activator, single point]
CC1CCCN(C(=O)CCl)C1 (stereo unspecified) | inactive: 24.7% | –
CCN(CC)CCNC1=NCCn2c1cc1cc(OC)ccc12 | – | inconclusive: 2.31 µM [inhibitor, full curve, poor fit]
CN(C)c1ccc(N=c2sc3ccccc3n2C)cc1 | – | inconclusive: 29.1 µM [inhibitor, single point]
CCN(CC)S(=O)(=O)c1cc(NC(=O)C(C)N(C)CC(=O)Nc2c(C)cccc2C)ccc1C (stereo unspecified) | – | inconclusive: 17.8 µM [inhibitor, single point]
O=C(N/N=C/c1ccc(Br)s1)c1ccc([N+](=O)[O-])cc1 | – | inconclusive: 6.31 µM [inhibitor, partial curve, poor fit]
CC(C)CCNc1nc(N2CCCC2)c2c(c1C#N)CCN(C)C2 | – | active: 7.3 µM
OCC1(Cc2ccccc2C(F)(F)F)CCN(Cc2ccc3c(c2)CCO3)CC1 | – | inconclusive: 11.2 µM [inhibitor, partial curve, poor fit]
Cc1onc(-c2ccccc2)c1C(=O)Nc1sc2c(c1C#N)CCC2 | – | active: 4.61 µM
CCCC(=O)n1nc(-c2ccco2)nc1SCc1ccccc1 | inactive: 16.4% | –
CCCCCCN1CCN(C2CN(Cc3ccc([N+](=O)[O-])cc3)S(=O)(=O)C2)CC1 (stereo unspecified) | – | inconclusive: 1.99 µM [inhibitor, full curve, poor fit]
Cc1ccc2nc(-c3cccc(Br)c3)cc(C(=O)NC3CC3)c2c1 | inactive: 26.9% | –
CCC1Oc2ccc(C)cc2N(CC(=O)NCCN2C(C)CCCC2C)C1=O (stereo unspecified) | – | inconclusive: 9.2 µM [inhibitor, partial curve, poor fit]
COc1ccccc1-c1nnc(SCC(=O)c2ccc(C3CCCCC3)cc2)n1Cc1ccco1 | – | inconclusive: 35.5 µM [inhibitor, single point]
COc1ccc(-n2nc(C(=O)NCC(=O)N3CCN(c4ccccc4OC)CC3)c3ccccc3c2=O)cc1OC | inactive: -12.5% [at 46.1 µM] | –
CC(=O)c1ccc(NC(=O)C(C)OC(=O)C2CCN(c3ccc(C(F)(F)F)cn3)CC2)cc1 (stereo unspecified) | inactive: -2.1% | –
CCOc1ccc(C(=O)NCc2nc(-c3ccc(Cl)cc3)no2)cc1OCC | – | inconclusive: 6.31 µM [activator, single point]
Cc1ccc(S(=O)(=O)NNC(=O)NC23CC4CC(CC(C4)C2)C3)cc1 | – | inconclusive: 11.2 µM [inhibitor, partial curve]
S=c1[nH]nc(COc2ccccc2)n1-c1ccc(Cl)cc1 | – | inconclusive: 4.47 µM [inhibitor, partial curve, poor fit]
OCCN1CCN(c2ncnc3c2sc2nc(N4CCOCC4)c4c(c23)CCC4)CC1 | – | inconclusive: 20.6 µM [inhibitor, single point]
COc1ccc(COC(=O)C2CCN(S(=O)(=O)c3ccc(C)cc3)CC2)cc1 | inactive: 20.9% | –
Cc1ccc(S(=O)(=O)N2CCCC2)cc1C(=O)NCCN1CCOCC1 | inactive: -5.44% | –
COc1ccc(N2CCN(c3cc(C)c4cccc(C)c4n3)CC2)cc1 | – | inconclusive: 35.5 µM [inhibitor, single point]

Compound | activity change, negative = inhibition | Potency
C=CCn1c(=NC(=O)c2cc(-c3cccs3)nc3ccccc23)sc2cc(S(N)(=O)=O)ccc21 | inactive: -12.4% | –
Cc1cc(Nc2ccccc2O)nc(C)n1 | inactive: 0.521% [at 46.1 µM] | –
Cc1ccc(C(=O)COC(=O)C2C3C=CC(C3)C2C(=O)OCC(=O)c2ccc(C)c(C)c2)cc1C (stereo unspecified) | – | inconclusive: 29.1 µM [inhibitor, single point]
CN(CC(=O)Nc1ccc2c(c1)OCO2)S(=O)(=O)c1ccc(F)cc1 | – | inconclusive: 6.31 µM [activator, full curve, poor fit]
COc1cccc(NC(=O)c2ccc(-n3cnnn3)cc2)c1 | inactive: 15.3% [at 46.1 µM] | –
Cc1ccc(S(=O)(=O)N2CCN(C(=O)c3sccc3C)CC2)cc1 | – | inconclusive: 1.26 µM [inhibitor, single point]
CCCC(=O)Nc1c2c(nn1-c1ccc(OC)cc1)CS(=O)C2 (stereo unspecified) | inactive: 16% [at 46.1 µM] | –
CCOC(=O)N/N=C1/C[C@@H](O)[C@@H](O)[C@@H]2[C@H]3C(=O)N(c4ccc(F)cc4F)C(=O)[C@@H]3CC[C@@H]12 | inactive: -21.5% [at 14.2 µM] | –
COc1ccc(-c2cc(C(=O)NCCN3CCOCC3)c3ccccc3n2)c(OC)c1 | – | inconclusive: 7.3 µM [inhibitor, partial curve, poor fit]
Cc1ccc(NC(=O)CC(=O)c2ccccc2)cc1C | – | inconclusive: 5.01 µM [inhibitor, full curve, poor fit]
Cc1ccc(C(C(=O)NC2CCCCC2)N2CCCC2)cc1 (stereo unspecified) | inactive: -16.4% | –
COc1ccc(N=C2C=CC(=O)O2)cc1 | inactive: -4.62% [at 46.1 µM] | –
COc1ccc(CN2CCN(CCc3ccccc3)C(CCO)C2)cc1Cn1cncn1 (stereo unspecified) | – | inconclusive: 35.5 µM [inhibitor, single point]
CCOC(=O)N/N=C/c1cc(C)n(-c2cccc3ccccc23)c1C | – | inconclusive: 25.1 µM [inhibitor, single point]
O=C(Nc1cccc2ccccc12)N1N=CCC1c1ccccc1 (stereo unspecified) | inactive: -5.36% [at 46.1 µM] | –
Cc1cccc(-n2c(-c3ccco3)nc3ccccc3c2=O)c1C | – | inconclusive: 7.08 µM [inhibitor, partial curve, poor fit]
CCCCNC(=O)Nc1c(C(=O)OCC)[nH]c2ccccc12 | inactive: 47.4% | –
CCCN(CC(=O)Nc1ccc(OC)c(OC)c1)CC(=O)Nc1ccc(F)c(F)c1F | – | inconclusive: 35.5 µM [inhibitor, single point]
CCOC(=O)/C=C/C(=O)Nc1ccccc1C(=O)NC1CCCCC1 | – | inconclusive: 0.112 µM [activator, full curve, poor fit]
O=C(NC1CC1)c1sc2cc(Cl)ccc2c1Cl | – | inconclusive: 3.16 µM [activator, single point]
CCC(=O)N1CCN(c2ccc(Cl)cc2NC(=S)NC(=O)c2ccco2)CC1 | inactive: 2.1% | –
COc1c(C)cc(NS(=O)(=O)c2ccc3c(c2)OCCO3)cc1C | inactive: -8.03% [at 46.1 µM] | –
CCOc1ccc(NC(=O)CCNS(=O)(=O)c2cccs2)cc1 | – | inactive and inconclusive: 20 µM [activator, single point]
